Measured values from PubChem BioAssay AID504444 (National Center for Advancing Translational Sciences (NCATS), 2011).
Out of some 360,000 compounds screened, about 7,500 (2.1%) were called active. The shares of active, inactive and inconclusive entries below differ from those in the screen. The call rests on the fitted dose curve; in most records, active means well fitted inhibition curve with a large enough effect; inconclusive means small, poorly fitted or top-dose-only effect, or effect the other way; inactive means flat fitted curve, though single readings scatter. A potency beside an inconclusive call is a rough fit, not a confirmed value.

Assay: Nrf2 qHTS screen for inhibitors; further: nearly all actives have a fitted effect of over 60% in size
Conditions: A549 ARE-Fluc reporter, luciferase luminescence, 18-24 h; activity change, negative = inhibition: at 46 µM (top of the series)
In short: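 In this cell-based qHTS, ARE-driven firefly luciferase in A549 cells reports Nrf2 activity; the luminescent signal after BugLite lysis is the measured value, with a prior CellTiter-Fluor read for cell health.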
On the % scale 0 is the no-effect control and ±100 the full control effect; potency means the concentration at half of the fitted maximal effect.

Row | SMILES | Potency | activity change, negative = inhibition
1 | Cc1ccc(C(=O)Nc2ncc(Cc3ccc(SC(F)F)cc3)s2)cc1 | inconclusive: 2.06 µM [activator, partial curve, poor fit] | 
2 | CC1CCN(S(=O)(=O)c2ccc3c(c2)oc(=O)n3CC(=O)NC(C)c2ccccc2)CC1 (stereo not given) | inconclusive: 32.6 µM [falling, partial curve, poor fit] | 
3 | COc1ccc(OC)c(-c2csc(NC(=O)Cn3[nH]c(=O)c4ccccc4c3=O)n2)c1 | active: 10.3 µM | 
4 | Cc1oc(C(C)(C)C)cc1C(=O)Nc1ccc2c(c1)OCO2 | inconclusive: 20.6 µM [falling, single point] | 
5 | Cc1cccc(C)c1NC(=O)CNC(=O)C(NC(=O)c1ccc(C(C)(C)C)cc1)C(C)C (stereo not given) |  | inactive: -5.47%
6 | CC(=O)Nc1cccc(NC(=O)CSc2nc(C3CC3)nc3ccccc23)c1 | inconclusive: 0.58 µM [falling, partial curve, poor fit] | 
7 | O=C1CC(c2ccc3c(c2)OCCO3)Oc2ccc([N+](=O)[O-])cc21 (stereo not given) | inconclusive: 0.116 µM [activator, full curve, poor fit] | 
8 | O=C(N/N=C/c1c[nH]c2ccccc12)c1cc(-c2ccccc2)n[nH]1 | inconclusive: 10.3 µM [activator, single point] | 
9 | CCOC(=O)c1ccc(NC(=O)Nc2ccc3c4c(cccc24)C(=O)N3CC)cc1 | inconclusive: 11.6 µM [falling, partial curve, poor fit] | 
10 | N#Cc1c(N2C(=O)Nc3ccccc3N2O)sc2c1CCCC2 | inconclusive: 18.4 µM [activator, single point] | 
11 | O=C(CSc1nnc(CNC(=O)c2ccccc2F)n1-c1ccccc1)Nc1ccccc1F |  | inactive: -2.22%
12 | CCOC(=O)C1CCN(C(=O)CN(C)S(=O)(=O)c2cc(C)ccc2OC)CC1 |  | inactive: -3.64%
13 | O=C1OCCC1Sc1nnc(-c2ccc(Cl)cc2Cl)o1 (stereo not given) | active: 9.2 µM | 
14 | Cc1ccnc(NC(=O)c2ccoc2C)c1 | inconclusive: 2.91 µM [activator, full curve] | 
15 | O=C(N/N=C/c1ccncc1)c1cccc(S(=O)(=O)N2CCCC2)c1 |  | inactive: 23.8%
16 | COc1ccc(N2CCN(C(=O)CN3CCN(c4nc(-c5ccc(F)cc5)cs4)CC3)CC2)cc1 | active: 7.31 µM | 
17 | COc1cccc(C2/C(=C(/O)c3ccc4c(c3)CC(C)O4)C(=O)C(=O)N2c2nnc(C)s2)c1 (stereo not given) | inconclusive: 25.9 µM [activator, single point] | 
18 | COc1ccc(NS(=O)(=O)c2ccc(C)c(C(=O)N(C)Cc3ccc(C)cc3)c2)cc1 | inconclusive: 29.1 µM [falling, single point] | 
19 | CCOc1ccc2[nH]c3c(NCCN(CC)CC)ncnc3c2c1 | inconclusive: 25.9 µM [activator, single point] | 
20 | CCOc1ccc(-n2ccn3c(CC(C)CC(=O)O)nnc3c2=O)cc1 (stereo not given) | inconclusive: 0.116 µM [activator, full curve, poor fit] | 
21 | Cc1nc2ccccc2c(=O)n1CCc1ccccc1 | inconclusive: 3.26 µM [activator, full curve, poor fit] | 
22 | Cc1ccccc1-c1nc2cc(NC(=O)c3cccc(OCCC(C)C)c3)ccc2o1 | active: 6.51 µM | 
23 | O=C1Cc2cc(S(=O)(=O)Nc3cccc([N+](=O)[O-])c3)cc3c2N1CCC3 | inconclusive: 29.1 µM [falling, single point] | 

Copied from the list.
Potency, COc1ccc(OC)c(-c2csc(NC(=O)Cn3[nH]c(=O)c4ccccc4c3=O)n2)c1 is entered as active: 10.3 µM
Potency, Cc1oc(C(C)(C)C)cc1C(=O)Nc1ccc2c(c1)OCO2 is entered as inconclusive: 20.6 µM [falling, single point]
Potency, CCOc1ccc2[nH]c3c(NCCN(CC)CC)ncnc3c2c1 is entered as inconclusive: 25.9 µM [activator, single point]

Continuation.

Row | SMILES | Potency | activity change, negative = inhibition
24 | Cc1ccc(NC(=O)COC(=O)C2CC3C=CC2C3)cc1S(=O)(=O)N1CCCCC1 (stereo not given) | inconclusive: 29.1 µM [falling, single point] | 
25 | COc1cc(NC(=O)c2ccc(-c3nc(COc4ccccc4)c(C)o3)cc2)cc(OC)c1 | active: 5.17 µM | 
26 | Cc1cccn2c(=O)c(C=NCc3ccccc3)c(NCCO)nc12 |  | inactive: -4.6%
27 | Clc1ccc(-c2cc(COc3ccccc3)on2)cc1 | inconclusive: 14.6 µM [activator, partial curve] | 
28 | CCc1cc2c(=O)c(-c3nc4ccccc4n3C)c(C)oc2c(CN(CC)CC)c1O |  | inactive: 3.88%
29 | Cc1ccsc1/C=N\NC(=O)c1ccc2c(c1)OCO2 | inconclusive: 6.51 µM [activator, partial curve, poor fit] | 
30 | COc1ccc(C(C)(C)C)cc1NC(=O)c1ccoc1C | inconclusive: 1.3 µM [falling, full curve, poor fit] | 
31 | N#Cc1ccc(OCC(O)CN2CCN(CC(O)COc3ccc(C#N)cc3)CC2)cc1 (stereo not given) | inconclusive: 16.4 µM [falling, partial curve] | 
32 | Nc1c(C(=O)O)cnc2c(-c3ccc(Cl)cc3)cnn12 | inconclusive: 1.84 µM [activator, full curve] | 
33 | N#Cc1ccccc1NC(=S)NC(=O)c1cccs1 |  | inactive: 1.2%
34 | CCCCN1C(=O)/C(=C2/Sc3ccc(OC)cc3N2CC)SC1=S |  | inactive: -5.07%
35 | CN(C)/C=C/c1oc2ccc(O)cc2c1[N+](=O)[O-] | inconclusive: 2.59 µM [activator, partial curve, poor fit] | 
36 | CCCCN1Cc2ccccc2Oc2cc(Br)ccc2S1(=O)=O | inconclusive: 23.1 µM [falling, single point] | 
37 | CC(OC(=O)c1nsc(Cl)c1Cl)C(=O)NC1CCCCC1 (stereo not given) |  | inactive: 2.74%
38 | CCc1ccc2[nH]c3nc(C)cc(C)c3c(=O)c2c1 |  | inactive: 10.4%
39 | COc1ccccc1-c1noc(-c2ccccc2)n1 | inconclusive: 8.2 µM [activator, partial curve, poor fit] | 
40 | Cc1cccc(NC(=O)CN(C)S(=O)(=O)c2cnc[nH]2)c1 | inconclusive: 0.0037 µM [activator, full curve, poor fit] | 
41 | O=C1C(Nc2ccccc2)=C2CCCC=C2N1c1ccccc1 | inconclusive: 7.31 µM [activator, partial curve, poor fit] | 
42 | CCOC(=O)C1CCN(c2ncnc3c2cnn3-c2ccccc2)CC1 |  | inactive: -10.7%
43 | CCOc1ccc(N(CC)S(=O)(=O)N2CCCC(C(=O)Nc3ccc(OC)c(OC)c3)C2)cc1 (stereo not given) | active: 20.6 µM | 
44 | C=CCSc1nnc(-c2ccc(Cl)cc2Cl)o1 | inconclusive: 3.66 µM [activator, partial curve] | 
45 | COc1ccccc1NC1SC(=O)N(c2ccccc2)C1=O (stereo not given) | inconclusive: 3.66 µM [activator, partial curve, poor fit] | 
